Tested on: male Sprague-Dawley rats
Assay: ICV infusion: plasma triglycerides and metabolites under basal and pancreatic clamp conditions
Type: in vivo, rat
Details: for Insulin / Adiponectin: plasma
Description: Animal preparation. We studied 10-week-old male Sprague-Dawley rats. Rats underwent stereotaxic surgery to indwell single catheters in the third cerebral ventricle {intracerebroventricular (ICV)(Obici et al., 2001) or bilateral catheters into the mediobasal hypothalamus (Lam et al., 2005c). One week later, we placed indwelling catheters in the internal jugular vein and carotid artery for sampling and infusion during the in vivo experiments (Obici et al., 2001). Recovery from surgery was monitored by measuring daily food intake and weight gain for 4-5 days after surgery.
Infusion protocols. The in vivo infusion experiments lasted a total of 360 min, and the experiments were carried out in rats that had their food removed ˜5 h before the experiments. Thus, at the time of the experiment, the rats are in post-absorptive state since their stomach should be completely emptied by 5 h fasting. […] This ICV glucose protocol physiologically elevate hypothalamic glucose concentration by ˜70% as previously described (Lam et al., 2005b) and is similar to that induced by a doubling of the circulating glucose levels (Lam et al., 2005b). During the ICV infusions, we monitored the plasma metabolite levels under pre-infused (0 min), basal (180-240 min) and pancreatic clamp (300-360 min) conditions. […] A basal insulin-pancreatic clamp was performed in the final 2 h (240-360 min) of the study as previously described (Lam et al., 2005b). In brief, a continuous infusion of insulin (1 mU/kg.min) and somatostatin (3 μg/kg.min) was administered, and a variable infusion of a 25% glucose solution was started and periodically adjusted to clamp and maintain the plasma glucose concentration at ˜8 mM. […] To examine the time-dependent effects of ICY glucose on plasma triglycerides, ICY (5 μl/h) 2 mM D-glucose or mannitol was administrated for 210 min and plasma triglyceride levels were monitored at 0, 20, 60, 120, 180, 210 min. […] Plasma triglycerides were monitored under basal, pancreatic clamp and tyloxapol-treated conditions. At the end of the infusion experiments, rats were anesthetized and tissue samples were freeze-clamped in situ with aluminum tongs pre-cooled in liquid nitrogen. All tissue samples were stored at −80° C. for subsequent analysis.
Biochemical analyses. Plasma glucose concentrations were measured by the glucose oxidase method (Glucose Analyzer II, Beckman Instruments, Inc., Fullerton, Calif.). […] FFA concentrations were determined by an enzyme assay in accordance with the manufacturer's specifications (Waco Pure Chemical Industries. Osaka. Japan). Plasma insulin concentrations (with rat and porcine insulin standards) were measured by radioimmunoassay (RIA). Plasma adiponectin concentrations were measured by RIA (Linco Inc., Austin, Tex., USA). Liver triglycerides were measured as described (Muse et al., 2004).
Calculations. Statistical analysis was done by unpaired Student's t test or analysis of variance as appropriate. Data are presented as means±SEM. All values were collapsed into a single value for each animal prior to the calculation of mean. The time period 180-240 min was averaged for the basal and the time period 300-360 min was averaged for the clamp conditions.

[1] = Basal, central glucose administration
[2] = Clamp, central glucose administration
[3] = Clamp, central lactate administration
[4] = Saline, central lactate administration

Row | Compound | Body weight [1] | Insulin [1] | Adiponectin [2] | Insulin [2] | Adiponectin [3] | Insulin [3] | Body weight [4] | Insulin [4]
1 | O=C[C@H](O)[C@@H](O)[C@H](O)[C@H](O)CO [glucose, D-glucose] | 302 ± 7 g | 14 ± 5 μU/ml | 1.5 ± 0.1 ηg/ml | 32 ± 5 μU/ml |  |  |  | 
2 | C[C@H](O)C(=O)O [lactate, L-lactate] |  |  |  |  | 1.1 ± 0.3 ηg/ml | 32 ± 7 μU/ml | 309 ± 8 g | 15 ± 3 μU/ml
